Experimental data reported in US9783523B2, “N-acylimino heterocyclic compounds” (BASF SE, priority 2013, dated 2017).
Some results were stated once for a whole list of compounds, not compound by compound.

Key:
Type in all cases: in vivo
Aphis craccivora = assay: Cowpea aphid (Aphis craccivora), potted cowpea plants sprayed; conditions: 500 ppm; plant spray, after 72 hours
Method: The active compound is dissolved at the desired concentration in a mixture of 1:1 (vol:vol) distilled water:acetone. Surfactant (Alkamuls® EL 620) is added at a rate of 0.1% (vol/vol). The test solution is prepared at the day of use.
Potted cowpea plants are colonized with approximately 50-100 aphids of various stages by manually transferring a leaf tissue cut from infested plant 24 hours before application. Plants are sprayed after the pest population has been recorded. Treated plants are maintained on light carts at about 28° C. Percent mortality is assessed after 72 hours.

Nezara viridula = assay: Green soldier stink bug (Nezara viridula), sprayed soybean pods in Petri dishes; conditions: 500 ppm; late 3rd instar, after 5 days
Method: The active compound is dissolved at the desired concentration in a mixture of 1:1 (vol:vol) distilled water:aceteone. Surfactant (Kinetic HV) is added at a rate of 0.01% (vol/vol). The test solution is prepared at the day of use.
Soybean pods were placed in 90×50 mm glass Petri dishes lined with moist filter paper and inoculated with ten late 3rd instar N. viridula. Using a hand atomizer, an approximately 2 ml solution is sprayed into each Petri dish. Treated cups were kept at about 25-26° C. and relative humidity of about 65-70%. Percent mortality was recorded after 5 days.

Megoura viciae = assay: Vetch aphid (Megoura viciae), sprayed bean leaf disks in microtiter plates; conditions: 2500 ppm, 6 days
Bemisia argentifolii = assay: Silverleaf whitefly (Bemisia argentifolii) adults, sprayed cotton plants; conditions: 300 ppm, 3 days after treatment
Method: (§1) The active compounds were formulated in cyclohexanone as a 10,000 ppm solution supplied in 1.3 ml ABgene® tubes. These tubes were inserted into an automated electrostatic sprayer equipped with an atomizing nozzle and they served as stock solutions for which lower dilutions were made in 1:1 (vol:vol) water: aceton. A nonionic surfactant (Kinetic®) was included in the solution at a volume of 0.01% (v/v).
Cotton plants at the cotyledon stage (one plant per pot) were sprayed by an automated electrostatic plant sprayer equipped with an atomizing spray nozzle. The plants were dried in the sprayer fume hood and then removed from the sprayer. Each pot was placed into a plastic cup and 10 to 12 whitefly adults (approximately 3-5 days old) were introduced. The insects were collected using an aspirator and 0.6 cm, nontoxic Tygon® tubing (R-3603) connected to a barrier pipette tip. The tip, containing the collected insects, was then gently inserted into the soil containing the treated plant, allowing insects to crawl out of the tip to reach the foliage for feeding. Cups were covered with a reusable screened lid (150-micron mesh polyester screen PeCap from Tetko, Inc.). […] Mortality was assessed 3 days after treatment, compared to untreated control plants.

Myzus persicae = assay: Green peach aphid (Myzus persicae), systemic control, liquid artificial diet under membrane in 96-well microtiter plates; conditions: 2500 ppm; adult aphids on treated diet, 3 days
Method in brief: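 Systemic exposure: adult aphids (5-8 per well) placed on a membrane over diet containing compound (25% DMSO formulation, duplicate). After 3 days' incubation, about 23 °C, ~50% RH, visual scoring of mortality and fecundity.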

Nephotettix virescens = assay: Rice green leafhopper (Nephotettix virescens), sprayed rice seedlings; conditions: 300 ppm, after 72 hours
Method: (§2) Rice seedlings are cleaned and washed 24 hours before spraying. The active compounds are formulated in 50:50 acetone:water (vol:vol), and 0.1% vol/vol surfactant (EL 620) is added. Potted rice seedlings are sprayed with 5 ml test solution, air dried, placed in cages and inoculated with 10 adults. Treated rice plants are kept at about 28-29° C. and relative humidity of about 50-60%. Percent mortality is recorded after 72 hours.

Nilaparvata lugens = assay: Rice brown plant hopper (Nilaparvata lugens), sprayed rice seedlings; conditions: 500 ppm, after 72 hours
Method: as §2, with “compounds is” for “compounds are”, “acetone:water (vol:vol)” for “acetone:water (vol:vol),”, “620) was” for “620) is”

Aphis gossypi = assay: Cotton aphid (Aphis gossypi), infested cotton plants sprayed; conditions: 300 ppm; plant spray, after 5 days
Method: as §1, with “water:aceton.” for “water: aceton.”
Cotton plants at the cotyledon stage were infested with aphids prior to treatment by placing a heavily infested leaf from the main aphid colony on top of each cotyledon. Aphids were allowed to transfer overnight to accomplish an infestation of 80-100 aphids per plant and the host leaf was removed. The infested plants were then sprayed by an automated electrostatic plant sprayer equipped with an atomizing spray nozzle. The plants were dried in the sprayer fume hood, removed from the sprayer, and then maintained in a growth room under fluorescent lighting in a 24-hr photoperiod at 25° C. and 20-40% relative humidity. Aphid mortality on the treated plants, relative to mortality on untreated control plants, was determined after 5 days.

Measured: mortality in comparison with untreated controls

CON=C(C)C(=O)N=c1ccccn1Cc1ccc(Cl)nc1 [Compound I-274]
at least 75%: all assays above
